Record: PubChem BioAssay AID1508597 (Cure First, 2020)
Purpose: 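Genes whose silencing sensitises or protects ovarian cancer cells against rucaparib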 (primary screen). Cell system: human ovarian carcinoma lines grown from tumours: OCI-P5x (papillary serous) and OCI-C5x (clear cell). Reagents: siRNA pool against human genes, 1.25 pmol siRNA per well. Time to read-out: 72 h or 96 h, depending on the cell culture. Challenge: rucaparib 20 µM (about IC30) or vehicle, present until read-out. Read-out: 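Luminescent ATP-based viability assay read 72 or 96 h after transfection, depending on culture, given as normalised percent viability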. Reading the numbers: viability, normalised: higher = more viable cells remaining. Hit rule: 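a well counts as a hit if its normalised viability is under 80 percent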. Meaning of the calls: active = viability under 80%; inactive = viability 80% or more.
The deposit covers about 2,100 reagents; this is a part drawn at random. 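Calls flag viability under 80% in either arm, not effects specific to rucaparib; the reference for percent is not stated.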 Unmarked entries are inactive. Not stated in the record: the 100% reference.

For ALKBH2 [SID405528254], rucaparib or vehicle Rucaparib, cell line OCI-C5x (clear cell), technical replicate 1, what was measured?
viability, normalised (%): 34.3 (active)

With ALKBH2 [SID405528254], rucaparib or vehicle Rucaparib, cell line OCI-C5x (clear cell), technical replicate 2, what does the deposit list?
viability, normalised (%): 60.7 (active)

Which result is listed for ALKBH2 [SID405528254], rucaparib or vehicle Rucaparib, cell line OCI-C5x (clear cell), technical replicate 3?
viability, normalised (%): 32.9 (active)

What did the screen give for ALKBH2 [SID405528254], rucaparib or vehicle Rucaparib, cell line OCI-P5x (serous), technical replicate 1?
viability, normalised (%): 52 (active)

For ALKBH2 [SID405528254], rucaparib or vehicle Rucaparib, cell line OCI-P5x (serous), technical replicate 2, what does the deposit list?
viability, normalised (%): 63 (active)

With ALKBH2 [SID405528254], rucaparib or vehicle Rucaparib, cell line OCI-P5x (serous), technical replicate 3, how do the results read?
viability, normalised (%): 50.5 (active)

Which result is listed for ALKBH2 [SID405528254], rucaparib or vehicle Vehicle, cell line OCI-C5x (clear cell), technical replicate 1?
viability, normalised (%): 58.6 (active)

For ALKBH2 [SID405528254], rucaparib or vehicle Vehicle, cell line OCI-C5x (clear cell), technical replicate 2, how do the results read?
viability, normalised (%): 79.7 (active)

For ALKBH2 [SID405528254], rucaparib or vehicle Vehicle, cell line OCI-C5x (clear cell), technical replicate 3, what was measured?
viability, normalised (%): 44.6 (active)

Which result is listed for ALKBH2 [SID405528254], rucaparib or vehicle Vehicle, cell line OCI-P5x (serous), technical replicate 1?
viability, normalised (%): 60.5 (active)

For ALKBH2 [SID405528254], rucaparib or vehicle Vehicle, cell line OCI-P5x (serous), technical replicate 2, how do the results read?
viability, normalised (%): 51.8 (active)

For ALKBH2 [SID405528254], rucaparib or vehicle Vehicle, cell line OCI-P5x (serous), technical replicate 3, how do the results read?
viability, normalised (%): 55.3 (active)

How did the screen score MAPK4 [SID405527557], rucaparib or vehicle Rucaparib, cell line OCI-C5x (clear cell), technical replicate 1?
viability, normalised (%): 65.1 (active)

With MAPK4 [SID405527557], rucaparib or vehicle Rucaparib, cell line OCI-C5x (clear cell), technical replicate 2, what does the deposit list?
viability, normalised (%): 86.9

For MAPK4 [SID405527557], rucaparib or vehicle Rucaparib, cell line OCI-C5x (clear cell), technical replicate 3, how do the results read?
viability, normalised (%): 77.6 (active)

For MAPK4 [SID405527557], rucaparib or vehicle Rucaparib, cell line OCI-P5x (serous), technical replicate 1, how do the results read?
viability, normalised (%): 103

With MAPK4 [SID405527557], rucaparib or vehicle Rucaparib, cell line OCI-P5x (serous), technical replicate 2, what was measured?
viability, normalised (%): 95.6

With MAPK4 [SID405527557], rucaparib or vehicle Rucaparib, cell line OCI-P5x (serous), technical replicate 3, how do the results read?
viability, normalised (%): 99.3

With MAPK4 [SID405527557], rucaparib or vehicle Vehicle, cell line OCI-C5x (clear cell), technical replicate 1, what does the deposit list?
viability, normalised (%): 84.5

What is on record for MAPK4 [SID405527557], rucaparib or vehicle Vehicle, cell line OCI-C5x (clear cell), technical replicate 2?
viability, normalised (%): 68.7 (active)

For MAPK4 [SID405527557], rucaparib or vehicle Vehicle, cell line OCI-C5x (clear cell), technical replicate 3, what was measured?
viability, normalised (%): 57.6 (active)

What did the screen give for MAPK4 [SID405527557], rucaparib or vehicle Vehicle, cell line OCI-P5x (serous), technical replicate 1?
viability, normalised (%): 114

With MAPK4 [SID405527557], rucaparib or vehicle Vehicle, cell line OCI-P5x (serous), technical replicate 2, what was measured?
viability, normalised (%): 108

Which result is listed for MAPK4 [SID405527557], rucaparib or vehicle Vehicle, cell line OCI-P5x (serous), technical replicate 3?
viability, normalised (%): 100

For ROCK1 [SID405527630], rucaparib or vehicle Rucaparib, cell line OCI-C5x (clear cell), technical replicate 1, what does the deposit list?
viability, normalised (%): 66.2 (active)

What is on record for ROCK1 [SID405527630], rucaparib or vehicle Rucaparib, cell line OCI-C5x (clear cell), technical replicate 2?
viability, normalised (%): 48.5 (active)

What did the screen give for ROCK1 [SID405527630], rucaparib or vehicle Rucaparib, cell line OCI-C5x (clear cell), technical replicate 3?
viability, normalised (%): 61 (active)

What is on record for ROCK1 [SID405527630], rucaparib or vehicle Rucaparib, cell line OCI-P5x (serous), technical replicate 1?
viability, normalised (%): 99.1

How did the screen score ROCK1 [SID405527630], rucaparib or vehicle Rucaparib, cell line OCI-P5x (serous), technical replicate 2?
viability, normalised (%): 102

For ROCK1 [SID405527630], rucaparib or vehicle Rucaparib, cell line OCI-P5x (serous), technical replicate 3, what does the deposit list?
viability, normalised (%): 104

For ROCK1 [SID405527630], rucaparib or vehicle Vehicle, cell line OCI-C5x (clear cell), technical replicate 1, what does the deposit list?
viability, normalised (%): 128

How did the screen score ROCK1 [SID405527630], rucaparib or vehicle Vehicle, cell line OCI-C5x (clear cell), technical replicate 2?
viability, normalised (%): 69.8 (active)

What is on record for ROCK1 [SID405527630], rucaparib or vehicle Vehicle, cell line OCI-C5x (clear cell), technical replicate 3?
viability, normalised (%): 69.3 (active)

How did the screen score ROCK1 [SID405527630], rucaparib or vehicle Vehicle, cell line OCI-P5x (serous), technical replicate 1?
viability, normalised (%): 100

For ROCK1 [SID405527630], rucaparib or vehicle Vehicle, cell line OCI-P5x (serous), technical replicate 2, what was measured?
viability, normalised (%): 108

With ROCK1 [SID405527630], rucaparib or vehicle Vehicle, cell line OCI-P5x (serous), technical replicate 3, how do the results read?
viability, normalised (%): 109
